For at least one compound, name, drawing or mass did not settle the structure.
Tested on: TNF alpha
Test: TNF alpha production assay (LPS-stimulated macrophages, ELISA)
Assay type: cell-based, human
Conditions: test peptide 10 micrograms per ml, lipopolysaccharide 200 ng/ml, overnight

CC[C@H](C)[C@H](NC(=O)[C@H](Cc1ccc(O)cc1)NC(=O)[C@H](CCCNC(=N)N)NC(=O)[C@H](CCCNC(=N)N)NC(=O)[C@H](CC(C)C)NC(=O)[C@H](CC(=O)O)NC(=O)[C@H](C)NC(=O)[C@H](C)NC(=O)[C@H](Cc1ccc(O)cc1)NC(=O)[C@H](CCC(N)=O)NC(=O)[C@H](C)NC(=O)[C@H](CCSC)NC(=O)[C@H](CCC(N)=O)NC(=O)[C@H](CCC(=O)O)NC(=O)[C@@H]1CCCN1C(=O)[C@@H](NC(=O)[C@H](C)NC(=O)[C@H](CC(N)=O)NC(=O)[C@H](CC(=O)O)NC(=O)CNC(=O)[C@@H]1CCCN1C(=O)[C@H](Cc1ccc(O)cc1)NC(=O)[C@@H](NC(=O)[C@@H]1CCCN1C(=O)[C@H](CCC(=O)O)NC(=O)[C@H](CC(C)C)NC(=O)[C@@H]1CCCN1C(=O)[C@H](C)N)C(C)C)[C@@H](C)O)C(=O)N[C@@H](CC(N)=O)C(=O)N[C@@H](CCSC)C(=O)N[C@@H](CC(C)C)C(=O)N[C@H](C(=O)N[C@@H](CCCNC(=N)N)C(=O)N1CCC[C@H]1C(=O)N[C@@H](CCCNC(=N)N)C(=O)N[C@@H](Cc1ccc(O)cc1)C(N)=O)[C@@H](C)O [Pancreatic polypeptide]
% of LPS induction: 114.6%
